Changes are numbered by the printed parent chain. Construct, isoform or probe ends are uncertain for at least one entry. Results from cells or extracts need not show a direct contact. For some assays here: At least one verdict was read from the data and is not stated in words by the source. Protein sequences can lack the tags named with them.
Columns and labels:
[1] = target: T1, DRIL1 Kx4R K126R,K398R,K399R,K452R (UniProt Q99856); assay: EMSA with anti-DRIL1 supershift; conditions: 5 ug nuclear proteins, 20 mM HEPES pH 7.9, 10 mM KCl, 0.2 mM EDTA, 20% glycerol, 1% acetylated BSA, 3 ug poly(dI-dC), 1 mM DTT, 1 mM PMSF, 30 min, room temperature; protein in a lysate after overexpression; label: 32P (Klenow end-fill with dATP and dCTP)
T1 sequence (looked up, limits assumed): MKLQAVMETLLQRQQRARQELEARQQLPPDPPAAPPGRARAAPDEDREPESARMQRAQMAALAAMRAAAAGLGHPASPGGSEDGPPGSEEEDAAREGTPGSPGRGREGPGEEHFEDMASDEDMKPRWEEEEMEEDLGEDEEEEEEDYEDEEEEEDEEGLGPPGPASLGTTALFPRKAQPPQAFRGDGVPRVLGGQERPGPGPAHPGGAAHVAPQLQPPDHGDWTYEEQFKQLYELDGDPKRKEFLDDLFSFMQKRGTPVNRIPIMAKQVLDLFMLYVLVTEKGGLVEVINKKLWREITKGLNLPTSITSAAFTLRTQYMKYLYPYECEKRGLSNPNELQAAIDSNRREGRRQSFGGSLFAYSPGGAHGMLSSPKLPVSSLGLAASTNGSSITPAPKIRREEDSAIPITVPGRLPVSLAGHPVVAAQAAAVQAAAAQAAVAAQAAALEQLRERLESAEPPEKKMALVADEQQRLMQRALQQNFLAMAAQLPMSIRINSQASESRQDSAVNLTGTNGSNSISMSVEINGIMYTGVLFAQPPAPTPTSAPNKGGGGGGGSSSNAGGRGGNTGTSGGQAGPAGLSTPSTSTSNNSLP

DRIL1 K398R = target: T2, DRIL1 K398R (UniProt Q99856); assay: EMSA with anti-DRIL1 supershift; conditions: 5 ug nuclear proteins, 20 mM HEPES pH 7.9, 10 mM KCl, 0.2 mM EDTA, 20% glycerol, 1% acetylated BSA, 3 ug poly(dI-dC), 1 mM DTT, 1 mM PMSF, 30 min, room temperature; protein in a lysate after overexpression; label: 32P (Klenow end-fill with dATP and dCTP)
T2 sequence (looked up, limits assumed): T1 sequence (looked up, limits assumed) with R126K, R399K, R452K

DRIL1 wt [2] = target: T3, DRIL1 wt (UniProt Q99856); assay: EMSA with anti-DRIL1 supershift; conditions: 5 ug nuclear proteins, 20 mM HEPES pH 7.9, 10 mM KCl, 0.2 mM EDTA, 20% glycerol, 1% acetylated BSA, 3 ug poly(dI-dC), 1 mM DTT, 1 mM PMSF, 30 min, room temperature; protein in a lysate after overexpression; label: 32P (Klenow end-fill with dATP and dCTP)
T3 sequence (looked up, limits assumed): T1 sequence (looked up, limits assumed) with R126K, R398K, R399K, R452K

DRIL1 wt [3] = target: T3, DRIL1 wt; assay: EMSA; conditions: SUMO1 co-expressed, binding unaffected; 5 ug nuclear proteins, 20 mM HEPES pH 7.9, 10 mM KCl, 0.2 mM EDTA, 20% glycerol, 1% acetylated BSA, 3 ug poly(dI-dC), 1 mM DTT, 1 mM PMSF, 30 min, room temperature; protein in a lysate after overexpression; label: 32P (Klenow end-fill with dATP and dCTP)

Measured: binding result

GGTTCCCCAAAATATAAGTATAAATATGTGCAAAACTTGTTTATTAACTTATTTATCTTAAAATCTGG (double strand) [Bf150]
binds: all assays above

GGTTAACTTGTTAAATCACAATAAAATATTGAAGTGTTATCACATACACATACTAAACAATTTTCTAA (double strand) [TX125]
binds: all assays above
